According to PubChem BioAssay AID493014 (National Center for Advancing Translational Sciences (NCATS), 2011):
Some of the results follow. Further columns of the screen follow, without active or inactive calls. Compounds called inactive in the main read-out are mostly missing here. Words in brackets tell the shape of the fitted curve; partial curves, single points and poor fits give uncertain potencies.

Experiment: qHTS Assay to Find Inhibitors of Chronic Active B-Cell Receptor Signaling
Settings: ABC-DLBCL IkBa-CBG/CBR reporter, luminescence ratio (green luciferase fused to IkBa over red control in TMD8 lymphoma cells), 4 h
Method in brief: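 Concentration-response series (up to 46 uM) were applied to TMD8 dual-reporter cells for 4 h at 37C with doxycycline. Green/red ratio, after filter-overlap correction, defined %Activity; red signal alone was normalised to basal cells and zero luminescence.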

[1] = measured here: CBR red luminescence, cell number
[2] = measured here: IkBa-CBG green luminescence

SMILES | AC50 [1] | AC50 [2]
CCCN1CCC(=O)N(CCSc2ccc(C)cc2)CC1 | 0.891 µM [falling, full curve, poor fit] | 
CCN(CC)C(=O)Cn1cc(C(=O)C(=O)NCCc2ccccc2)c2ccccc21 | 1.58 µM [falling, full curve] | 
CCOC(=O)c1cc(CC)sc1N | 25.1 µM [rising, single point] | 
Nc1c(S(=O)(=O)c2cccs2)c2nc3ccccc3nc2n1Cc1ccccc1 | 0.164 µM [falling, full curve, poor fit] | 
CCOc1cc(S(=O)(=O)Nc2ccc(CC)cc2)ccc1Cl | 29.1 µM [falling, single point] | 
CCCC(C)NC(=O)CSc1nc(-c2ccccc2)cn1N (stereo not given) | 35.5 µM [rising, single point] | 
CCCn1c(NCc2c[nH]c3ccccc23)nc2ccccc21 | 32.6 µM [falling, single point] | 
O=C(c1ccc(OC2CCN(CCc3ccccc3)CC2)cc1)N1CCC(CO)CC1 | 2.51 µM [falling, partial curve, poor fit] | 
COc1ccc(C(=O)n2c(-c3ccco3)nc3ccccc32)cc1 |  | 35.5 µM [falling, partial curve, poor fit]
O=C(c1ccco1)N(Cc1ccccc1)Cc1ccccn1 | 6.31 µM [rising, single point] | 
CCOC1(C)OCC(=O)[C@]2(CCC3C4CCC5=CC(=O)C=CC5(C)C4C(=O)CC32C)O1 (stereo not given in full) | 16.4 µM [rising, partial curve] | 
CCOC(=O)C(=O)NN=C(c1ccccc1)c1ccccc1 | 0.282 µM [rising, full curve, poor fit] | 
O=c1[nH]c(-[n+]2ccc3ccccc3c2)c(/C=N/N=C(\[O-])c2ccccc2)s1 | 7.08 µM [falling, full curve] | 
O=C(NCc1c(F)cccc1F)c1cc(COc2c(F)cccc2F)on1 | 35.5 µM [rising, single point] | 
CO/N=C/c1ccc(Oc2ccc([N+](=O)[O-])cc2[N+](=O)[O-])c(OC)c1 | 29.1 µM [falling, single point] | 29.1 µM [falling, single point]
CN(C(=O)CSc1cccc[n+]1[O-])C1CCCCC1 | 4.61 µM [falling, partial curve] | 25.9 µM [falling, single point]
Cc1cc(N/N=C/c2ccc(F)cc2)nc(NCc2ccccc2)n1 |  | 15.8 µM [falling, single point]
CCn1c(SCC(=O)Nc2ccc3c(c2)OCO3)nc2ccccc21 | 8.2 µM [falling, partial curve, poor fit] | 

Sorted by length of the SMILES (smallest number first): 3 of the compounds above.
SMILES | AC50 [1] | AC50 [2]
O=C(c1ccco1)N(Cc1ccccc1)Cc1ccccn1 | 6.31 µM [rising, single point] | 
CCOC(=O)C(=O)NN=C(c1ccccc1)c1ccccc1 | 0.282 µM [rising, full curve, poor fit] | 
CCOc1cc(S(=O)(=O)Nc2ccc(CC)cc2)ccc1Cl | 29.1 µM [falling, single point] | 
